Data reported in patent publication US7947715B2, “Isoxazoline compound and pesticide” (Nissan Chemical Industries, Ltd., priority 2006, dated 2011).
Some entries share one result that the patent states for a list of compounds. For at least one compound, name, drawing or mass did not settle the structure.

Test system: cabbage moth (Plutella xylostella)
Assay: Insecticidal test against cabbage moth (leaf dip)
Assay type: in vivo
Settings: second instar larva, after 6 days

SMILES	insecticidal rate (rate of dead insects) (100 ppm (*)) [%]	insecticidal rate (rate of dead insects) (500 ppm) [%]	further results
N#CNCc1ccc(C2=NOC(c3cc(Cl)c(Cl)c(Cl)c3)(C(F)(F)F)C2)cc1Cl (centres unmarked) [9-044]	≥ 80	–	–
NCc1ccc(C2=NOC(c3cc(Cl)c(OC(F)F)c(Cl)c3)(C(F)(F)F)C2)cc1Cl (centres unmarked) [9-050]	–	≥ 80	–
CNCc1ccc(C2=NOC(c3cc(C(F)(F)F)cc(C(F)(F)F)c3)(C(F)(F)F)C2)cc1Cl (centres unmarked) [9-051]	≥ 80	–	–
CCNCc1ccc(C2=NOC(c3cc(C(F)(F)F)cc(C(F)(F)F)c3)(C(F)(F)F)C2)cc1Cl (centres unmarked) [9-052]	–	–	insecticidal rate (rate of dead insects) (10 ppm (**)): ≥ 80%
C#CCNCc1ccc(C2=NOC(c3cc(C(F)(F)F)cc(C(F)(F)F)c3)(C(F)(F)F)C2)cc1Cl (centres unmarked) [9-055]	≥ 80	–	–
CCNCc1ccc(C2=NOC(c3cc(Cl)c(Cl)c(C(F)(F)F)c3)(C(F)(F)F)C2)cc1Cl (centres unmarked) [9-056]	–	–	insecticidal rate (rate of dead insects) (10 ppm (**)): ≥ 80%
CCCNCc1ccc(C2=NOC(c3cc(Cl)c(Cl)c(C(F)(F)F)c3)(C(F)(F)F)C2)cc1Cl (centres unmarked) [9-057]	≥ 80	–	–
CC(=O)NCCNCc1ccc(C2=NOC(c3cc(Cl)cc(Cl)c3)(C(F)(F)F)C2)cc1Cl (centres unmarked) [9-059]	≥ 80	–	–
CC(C)(C)OC(=O)NCCNCc1ccc(C2=NOC(c3cc(Cl)cc(Cl)c3)(C(F)(F)F)C2)cc1Cl (centres unmarked) [9-061]	–	≥ 80	–
N#CCNCc1ccc(C2=NOC(c3cc(C(F)(F)F)cc(C(F)(F)F)c3)(C(F)(F)F)C2)cc1Cl (centres unmarked) [9-062]	≥ 80	–	–
N#CCNCc1ccc(C2=NOC(c3cc(Cl)c(Cl)c(C(F)(F)F)c3)(C(F)(F)F)C2)cc1Cl (centres unmarked) [9-063]	–	–	insecticidal rate (rate of dead insects) (10 ppm (**)): ≥ 80%
C=CCNCc1ccc(C2=NOC(c3cc(C(F)(F)F)cc(C(F)(F)F)c3)(C(F)(F)F)C2)cc1Cl (centres unmarked) [9-065]	≥ 80	–	–
C=CCNCc1ccc(C2=NOC(c3cc(Cl)c(Cl)c(C(F)(F)F)c3)(C(F)(F)F)C2)cc1Cl (centres unmarked) [9-066]	≥ 80	–	–
C#CCNCc1ccc(C2=NOC(c3cc(Cl)c(Cl)c(C(F)(F)F)c3)(C(F)(F)F)C2)cc1Cl (centres unmarked) [9-067]	–	–	insecticidal rate (rate of dead insects) (10 ppm (**)): ≥ 80%
FC(F)(F)c1cc(C(F)(F)F)cc(C2(C(F)(F)F)CC(c3ccc(CNCc4ccccc4)c(Cl)c3)=NO2)c1 (centres unmarked) [9-068]	–	–	insecticidal rate (rate of dead insects) (10 ppm (**)): ≥ 80%
N#CC(N)c1ccc(C2=NOC(c3cc(C(F)(F)F)cc(C(F)(F)F)c3)(C(F)(F)F)C2)cc1Cl (centres unmarked) [9-069]	–	–	insecticidal rate (rate of dead insects) (10 ppm (**)): ≥ 80%
Cc1cc(C2=NOC(c3cc(Cl)cc(Cl)c3)(C(F)(F)F)C2)ccc1C(N)C#N (centres unmarked) [9-070]	–	≥ 80	–
NCc1ncc(C2=NOC(c3cc(Cl)cc(Cl)c3)(C(F)(F)F)C2)cc1Cl (centres unmarked) [10-001]	–	≥ 80	–
O=C1c2ccccc2C(=O)N1Cc1ccc(C2=NOC(c3cc(Cl)cc(Cl)c3)(C(F)(F)F)C2)cc1 (centres unmarked) [11-001]	–	≥ 80	–
CC(c1ccc(C2=NOC(c3cc(Cl)cc(Cl)c3)(C(F)(F)F)C2)cc1)N1C(=O)c2ccccc2C1=O (centres unmarked) [11-002]	–	≥ 80	–
O=C1c2ccccc2C(=O)N1Cc1ccc(C2=NOC(c3cc(Cl)cc(Cl)c3)(C(F)(F)F)C2)cc1Cl (centres unmarked) [11-005]	–	≥ 80	–
O=C1c2ccccc2C(=O)N1Cc1ccc(C2=NOC(c3cc(Cl)cc(Cl)c3)(C(F)(F)F)C2)cc1I (centres unmarked) [11-008]	–	≥ 80	–
CC(c1ccc(C2=NOC(c3cc(Cl)c(Cl)c(Cl)c3)(C(F)(F)F)C2)cc1)N1C(=O)c2ccccc2C1=O (centres unmarked) [11-018]	–	≥ 80	–
O=C1c2ccccc2C(=O)N1Cc1ccc(C2=NOC(c3cc(Cl)c(OC(F)F)c(Cl)c3)(C(F)(F)F)C2)cc1Cl (centres unmarked) [11-020]	–	≥ 80	–
O=C(NCc1ccc(C2=NOC(c3cc(Cl)cc(Cl)c3)(C(F)(F)F)C2)cc1Cl)C(F)(F)C(F)(F)C(F)(F)F (centres unmarked) [compound 1074]	–	≥ 80	–
O=C(CC(F)(F)F)NCc1ccc(C2=NOC(c3cc(Cl)cc(C(F)(F)F)c3)(C(F)(F)F)C2)cc1Br (centres unmarked) [compound 2490]	–	–	insecticidal rate (rate of dead insects) (10 ppm (**)): ≥ 80%
